Data: PubChem BioAssay AID652280 (Broad Institute, 2013)
The shares of active, inactive and inconclusive entries below differ from those in the screen. Active and inactive are the calls of the source. How the calls were made is not given here.

assay: NIH/3T3 fibroblast cytotoxicity, dose response, cytotoxicity control, cell-based, plate reader, dry powder, set 2 (AID 652280); conditions: NIH/3T3 mouse fibroblast toxicity; at 16 µM (top of the series) unless noted

| Compound | activity change, negative = toxicity |
| --- | --- |
| C[C@@H]1CN([C@H](C)CO)C(=O)c2cccc(NC(=O)c3ccncc3)c2O[C@H]1CN(C)Cc1ccc(C(F)(F)F)cc1 | inconclusive: -45% |
| CN(C)C(=O)c1ccc(-c2ccc([C@H]3[C@H](CO)N4CCCCN(C(=O)C5CCC5)C[C@@H]34)cc2)cc1 | inactive: -17% |
| O=C(C1CCC1)N1CCCCN2[C@@H](CO)[C@H](c3ccc(-c4cccc(F)c4)cc3)[C@@H]2C1 | inconclusive: -24.4% |
| CC(C)N1C[C@H](C)[C@@H](CN(C)Cc2ccc(Cl)c(Cl)c2)Oc2c(cccc2-c2cn(-c3ccncc3)nn2)C1=O | inconclusive: -42.1% |
| CC(C)N1C[C@H](C)[C@@H](CN(C)Cc2ccc(Oc3ccccc3)cc2)Oc2c(cccc2-c2cn(-c3ccncc3)nn2)C1=O | inconclusive: -49.1% |
| C[C@@H](CO)N1CC[C@H](CNCc2ccc(Oc3ccccc3)cc2)Oc2c(NC(=O)c3ccncc3)cccc2C1=O | inconclusive: -30.2% |
| C[C@@H]1CN([C@@H](C)CO)C(=O)c2cccc(NC(=O)c3ccncc3)c2O[C@H]1CN(C)CC1CCCCC1 | inconclusive: -12.7% |
| C[C@@H]1CN([C@@H](C)CO)C(=O)c2cccc(NC(=O)c3ccncc3)c2O[C@H]1CN(C)Cc1ccc2c(c1)OCO2 | inconclusive: -12.1% |
| CC(C)(C)[S@](=O)N1Cc2cc(C(=O)NCc3ccc4c(c3)OCO4)nc(-c3cccc(-c4cccnc4)c3)c2[C@@H]1CCO | inconclusive: -15.6% [at 18 µM] |
| C[C@H](CO)N1C[C@H](C)[C@@H](CN(C)Cc2ccc(Oc3ccccc3)cc2)Oc2c(NC(=O)c3ccncc3)cccc2C1=O | inconclusive: -19% |

Single values from the entries so far:
C[C@@H]1CN([C@@H](C)CO)C(=O)c2cccc(NC(=O)c3ccncc3)c2O[C@H]1CN(C)Cc1ccc2c(c1)OCO2 | activity change, negative = toxicity: inconclusive: -12.1%
C[C@@H]1CN([C@@H](C)CO)C(=O)c2cccc(NC(=O)c3ccncc3)c2O[C@H]1CN(C)CC1CCCCC1 | activity change, negative = toxicity: inconclusive: -12.7%
